For 4 molecules, binding results are on record in article PMC4236683.

Amino acid sequences for entries named in this document (tags omitted). Residues count along the entry.
UniProt P70207, residues 35-1894: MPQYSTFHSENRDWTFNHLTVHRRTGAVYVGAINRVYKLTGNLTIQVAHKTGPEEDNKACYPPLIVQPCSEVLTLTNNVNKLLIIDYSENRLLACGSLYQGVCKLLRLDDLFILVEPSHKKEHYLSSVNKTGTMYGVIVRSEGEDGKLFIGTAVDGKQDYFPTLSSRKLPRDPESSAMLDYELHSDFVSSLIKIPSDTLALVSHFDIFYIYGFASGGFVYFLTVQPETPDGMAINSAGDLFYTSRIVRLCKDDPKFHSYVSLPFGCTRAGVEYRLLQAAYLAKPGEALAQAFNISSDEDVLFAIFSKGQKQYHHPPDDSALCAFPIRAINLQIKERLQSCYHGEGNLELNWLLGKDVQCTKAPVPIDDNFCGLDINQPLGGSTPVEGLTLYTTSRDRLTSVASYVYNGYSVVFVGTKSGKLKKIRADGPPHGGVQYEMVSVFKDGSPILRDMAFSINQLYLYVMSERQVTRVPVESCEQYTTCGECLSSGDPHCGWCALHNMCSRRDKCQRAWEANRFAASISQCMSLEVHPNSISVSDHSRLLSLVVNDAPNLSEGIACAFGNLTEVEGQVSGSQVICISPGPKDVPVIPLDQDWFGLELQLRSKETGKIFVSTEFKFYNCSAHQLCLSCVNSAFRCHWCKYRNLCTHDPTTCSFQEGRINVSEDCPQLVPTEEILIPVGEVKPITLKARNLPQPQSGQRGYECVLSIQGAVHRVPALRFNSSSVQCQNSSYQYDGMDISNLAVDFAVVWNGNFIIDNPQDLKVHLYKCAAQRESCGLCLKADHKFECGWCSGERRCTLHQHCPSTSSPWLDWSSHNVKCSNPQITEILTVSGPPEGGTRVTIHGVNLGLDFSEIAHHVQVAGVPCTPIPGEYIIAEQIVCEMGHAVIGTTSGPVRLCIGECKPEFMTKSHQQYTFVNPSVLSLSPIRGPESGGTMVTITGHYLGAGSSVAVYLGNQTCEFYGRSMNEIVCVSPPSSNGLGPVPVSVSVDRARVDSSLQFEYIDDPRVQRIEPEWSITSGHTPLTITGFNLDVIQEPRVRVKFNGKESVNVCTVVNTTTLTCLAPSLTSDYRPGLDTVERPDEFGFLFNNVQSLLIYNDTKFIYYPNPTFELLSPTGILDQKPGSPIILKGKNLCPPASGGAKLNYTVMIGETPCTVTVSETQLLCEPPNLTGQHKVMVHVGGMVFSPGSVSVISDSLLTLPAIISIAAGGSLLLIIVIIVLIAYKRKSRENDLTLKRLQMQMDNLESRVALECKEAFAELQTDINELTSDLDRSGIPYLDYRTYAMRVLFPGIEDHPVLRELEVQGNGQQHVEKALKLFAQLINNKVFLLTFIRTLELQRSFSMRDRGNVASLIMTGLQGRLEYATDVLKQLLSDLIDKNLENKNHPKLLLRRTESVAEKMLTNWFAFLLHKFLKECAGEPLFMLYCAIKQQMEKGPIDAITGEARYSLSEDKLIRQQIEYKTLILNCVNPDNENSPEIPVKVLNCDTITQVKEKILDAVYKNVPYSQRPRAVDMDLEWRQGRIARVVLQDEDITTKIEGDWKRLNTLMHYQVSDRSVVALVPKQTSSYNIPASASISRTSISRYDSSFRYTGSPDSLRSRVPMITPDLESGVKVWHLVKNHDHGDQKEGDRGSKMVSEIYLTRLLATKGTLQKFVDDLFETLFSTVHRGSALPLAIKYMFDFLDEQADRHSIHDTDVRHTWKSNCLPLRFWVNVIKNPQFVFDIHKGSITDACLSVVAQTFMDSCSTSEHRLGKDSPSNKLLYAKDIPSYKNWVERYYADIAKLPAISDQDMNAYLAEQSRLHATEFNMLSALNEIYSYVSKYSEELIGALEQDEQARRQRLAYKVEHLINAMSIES
UniProt P70206, residues 28-1894: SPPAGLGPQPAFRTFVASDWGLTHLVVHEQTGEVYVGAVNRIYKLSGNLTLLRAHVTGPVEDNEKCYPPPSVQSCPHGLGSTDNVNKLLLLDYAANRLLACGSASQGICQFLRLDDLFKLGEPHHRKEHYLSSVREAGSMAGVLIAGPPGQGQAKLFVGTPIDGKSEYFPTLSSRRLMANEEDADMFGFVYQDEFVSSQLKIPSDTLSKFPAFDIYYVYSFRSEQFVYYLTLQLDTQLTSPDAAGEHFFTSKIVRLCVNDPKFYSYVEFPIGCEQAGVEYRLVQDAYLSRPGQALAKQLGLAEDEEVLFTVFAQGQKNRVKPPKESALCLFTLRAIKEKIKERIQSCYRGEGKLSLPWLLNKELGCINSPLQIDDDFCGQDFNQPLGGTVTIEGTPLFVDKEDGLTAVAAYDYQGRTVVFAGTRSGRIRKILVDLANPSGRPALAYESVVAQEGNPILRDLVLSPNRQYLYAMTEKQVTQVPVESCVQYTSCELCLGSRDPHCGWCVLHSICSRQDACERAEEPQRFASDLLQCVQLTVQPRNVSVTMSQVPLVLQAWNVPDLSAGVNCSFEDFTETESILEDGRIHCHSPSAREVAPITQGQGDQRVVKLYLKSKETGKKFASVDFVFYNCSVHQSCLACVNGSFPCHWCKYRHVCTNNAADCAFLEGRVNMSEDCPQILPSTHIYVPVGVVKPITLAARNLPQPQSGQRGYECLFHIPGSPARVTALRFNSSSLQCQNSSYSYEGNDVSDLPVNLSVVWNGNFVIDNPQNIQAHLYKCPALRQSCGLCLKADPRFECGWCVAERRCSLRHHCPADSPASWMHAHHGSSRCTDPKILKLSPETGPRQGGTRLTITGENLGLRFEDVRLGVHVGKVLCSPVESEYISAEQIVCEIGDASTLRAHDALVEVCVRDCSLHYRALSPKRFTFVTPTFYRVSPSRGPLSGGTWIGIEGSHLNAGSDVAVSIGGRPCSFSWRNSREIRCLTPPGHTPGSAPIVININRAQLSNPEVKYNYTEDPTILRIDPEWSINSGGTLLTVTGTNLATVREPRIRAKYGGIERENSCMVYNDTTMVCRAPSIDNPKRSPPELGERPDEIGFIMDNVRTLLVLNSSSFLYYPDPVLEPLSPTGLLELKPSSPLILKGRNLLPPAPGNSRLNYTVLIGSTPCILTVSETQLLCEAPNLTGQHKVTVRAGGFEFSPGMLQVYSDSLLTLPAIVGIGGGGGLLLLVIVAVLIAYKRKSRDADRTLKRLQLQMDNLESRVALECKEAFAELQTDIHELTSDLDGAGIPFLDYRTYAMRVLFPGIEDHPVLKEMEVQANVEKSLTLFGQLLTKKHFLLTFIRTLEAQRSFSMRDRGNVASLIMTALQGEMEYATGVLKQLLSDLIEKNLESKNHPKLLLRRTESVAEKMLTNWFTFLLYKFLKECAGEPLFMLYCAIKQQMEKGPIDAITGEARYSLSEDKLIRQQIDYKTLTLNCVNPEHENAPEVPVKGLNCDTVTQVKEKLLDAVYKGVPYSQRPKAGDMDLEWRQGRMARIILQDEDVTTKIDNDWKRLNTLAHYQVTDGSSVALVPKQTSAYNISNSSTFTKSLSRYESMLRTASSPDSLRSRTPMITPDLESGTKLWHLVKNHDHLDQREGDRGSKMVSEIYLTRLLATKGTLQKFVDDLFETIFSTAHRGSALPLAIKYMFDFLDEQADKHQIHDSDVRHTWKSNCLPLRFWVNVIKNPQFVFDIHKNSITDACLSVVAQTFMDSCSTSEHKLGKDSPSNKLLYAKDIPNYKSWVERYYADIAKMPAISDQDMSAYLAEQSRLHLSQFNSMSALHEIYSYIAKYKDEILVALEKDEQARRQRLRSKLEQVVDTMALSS

These are yes or no findings as the source states them, for the method shown. Some entries that bind do so weakly or less than the wild type. Where a sequence is shown, tags or fusion partners need not be part of it.

The target in assay [1] is full-length PlexA2 with an N-terminal 6xMyc tag (mouse) (UniProt P70207). In words: cis competition on co-transfected cells; membrane-bound Sema5A constructs co-expressed with PlexA2 in the same COS7 cells; read out as loss of binding of bath applied Sema5A-Fc.
For assay [2], the target named is full-length PlexA1 with an N-terminal 6xMyc tag (mouse) (UniProt P70206). In words: binding of AP-clustered Fc fusion protein to transfected cells; COS7 cells transfected with PlexA or semaphorin constructs, incubated 75 min in OptiMEM with Fc fusion protein preclustered with anti-human IgG conjugated to alkaline phosphatase; rinsed, fixed, developed with NBT/BCIP; only the binder purified.

Assay [3] deals with full-length PlexA2 with an N-terminal 6xMyc tag (mouse) (UniProt P70207). The description is as above.

B1: membrane-bound Sema5A lacking the seven TSRs (6xMyc-Sema5A^ΔTSR) (ligand, UniProt D3ZTD8 23-539; D3ZTD8 951-1074)
chain: ETQDPAKCQRAEHPVVSYKEIGPWLREFRAENAVDFSRLTFDPGQKELVVGARNYLFRLQLEDLSLIQAVQWECDEATKKACYSKGKSKEECQNYIRVLLVGGDRLFTCGTNAFTPVCTIRSLSNLTEIHDQISGMARCPYSPQHNSTALLTASGELYAATAMDFPGRDPAIYRSLGTLPPLRTAQYNSKWLNEPNFVSSYDIGNFTYFFFRENAVEHDCGKTVFSRAARVCKNDIGGRFLLEDTWTTFMKARLNCSRPGEVPFYYNELQSTFFLPELDLIYGIFTTNVNSIAASAVCVFNLSAISQAFNGPFKYQENSRSAWLPYPNPNPNFQCGTMDQGLYVNLTERNLQDAQKFILMHEVVQPVTTVPSFMEDNSRFSHVAVDVVQGRDTLVHIIYLATDYGTIKKVRAPLSQSSGSCLLEEIELFPERKSEPIRSLKILHSQSVLFVGLQEHVVKIPLKRCHFHQTRGACIGAQDPYCGWDAVMKKCTSLEESLSMTQWDQSVPTCPTRNLTVSVARSSSVEEKRCGEFNMFHMMAVGLSSSILGCLLTLLVYTYCQRYQQQSHDATVIHPVSPAALNSSITNHINKLDKYDSVEAIKAFNKNNLILEERNKYFNPHLTGKTYSNAYFTDLNNYDEY
On to B1, for which the binding entry in assay [1] is recorded as “binds”.

B2: Sema5A^Sema-Fc (sema domain of Sema5A fused to Fc) (Fc fusion, UniProt D3ZTD8 23-539)
chain: ETQDPAKCQRAEHPVVSYKEIGPWLREFRAENAVDFSRLTFDPGQKELVVGARNYLFRLQLEDLSLIQAVQWECDEATKKACYSKGKSKEECQNYIRVLLVGGDRLFTCGTNAFTPVCTIRSLSNLTEIHDQISGMARCPYSPQHNSTALLTASGELYAATAMDFPGRDPAIYRSLGTLPPLRTAQYNSKWLNEPNFVSSYDIGNFTYFFFRENAVEHDCGKTVFSRAARVCKNDIGGRFLLEDTWTTFMKARLNCSRPGEVPFYYNELQSTFFLPELDLIYGIFTTNVNSIAASAVCVFNLSAISQAFNGPFKYQENSRSAWLPYPNPNPNFQCGTMDQGLYVNLTERNLQDAQKFILMHEVVQPVTTVPSFMEDNSRFSHVAVDVVQGRDTLVHIIYLATDYGTIKKVRAPLSQSSGSCLLEEIELFPERKSEPIRSLKILHSQSVLFVGLQEHVVKIPLKRCHFHQTRGACIGAQDPYCGWDAVMKKCTSLEESLSMTQWDQSVPTCPTRNLTV
Turning to B2, the binding result in assay [2] and in assay [3] was “binds” throughout.

B3: Sema5A lacking the cytoplasmic domain (6xMyc-Sema5A^Δcyt) (ligand, UniProt D3ZTD8 23-999)
chain: ETQDPAKCQRAEHPVVSYKEIGPWLREFRAENAVDFSRLTFDPGQKELVVGARNYLFRLQLEDLSLIQAVQWECDEATKKACYSKGKSKEECQNYIRVLLVGGDRLFTCGTNAFTPVCTIRSLSNLTEIHDQISGMARCPYSPQHNSTALLTASGELYAATAMDFPGRDPAIYRSLGTLPPLRTAQYNSKWLNEPNFVSSYDIGNFTYFFFRENAVEHDCGKTVFSRAARVCKNDIGGRFLLEDTWTTFMKARLNCSRPGEVPFYYNELQSTFFLPELDLIYGIFTTNVNSIAASAVCVFNLSAISQAFNGPFKYQENSRSAWLPYPNPNPNFQCGTMDQGLYVNLTERNLQDAQKFILMHEVVQPVTTVPSFMEDNSRFSHVAVDVVQGRDTLVHIIYLATDYGTIKKVRAPLSQSSGSCLLEEIELFPERKSEPIRSLKILHSQSVLFVGLQEHVVKIPLKRCHFHQTRGACIGAQDPYCGWDAVMKKCTSLEESLSMTQWDQSVPTCPTRNLTVDGSFGPWSPWTPCTHTDGTAVGSCLCRSRSCDSPAPQCGGWQCEGPRMEITNCSRNGGWTPWTSWSPCSTTCGIGFQVRQRSCSNPTPRHGGRVCVGQNREERYCNEHLLCPPHVFWTGWGPWERCTAQCGGGIQARRRTCENGPDCAGCNVEYQPCNTNACPELKKTTPWTPWTPVNISDNGGHYEQRFRYTCKARLPDPNLLEVGRQRIEMRYCSSDGTSGCSTDGLSGDFLRAGRYSAHTVNGAWSAWTSWSQCSRDCSRGIRNRKRVCNNPEPKYGGMPCLGPSLEFQECNILPCPVDGVWSCWSSWSKCSATCGGGHYMRTRSCTNPAPAYGGDICLGLHTEEALCNTQTCPENWSEWSEWSVCDASGTQVRTRQCILLFPVGSQCSGNTTESRPCVFDSNFIPEVSVARSSSVEEKRCGEFNMFHMMAVGLSSSILGCLLTLLVYTYCQRYQQQ
In the case of B3, in assay [1], the binding result is “binds”.

B4: 6xMyc N-terminal-tagged full-length (FL)-Sema5A (ligand, UniProt D3ZTD8 23-1074)
chain: ETQDPAKCQRAEHPVVSYKEIGPWLREFRAENAVDFSRLTFDPGQKELVVGARNYLFRLQLEDLSLIQAVQWECDEATKKACYSKGKSKEECQNYIRVLLVGGDRLFTCGTNAFTPVCTIRSLSNLTEIHDQISGMARCPYSPQHNSTALLTASGELYAATAMDFPGRDPAIYRSLGTLPPLRTAQYNSKWLNEPNFVSSYDIGNFTYFFFRENAVEHDCGKTVFSRAARVCKNDIGGRFLLEDTWTTFMKARLNCSRPGEVPFYYNELQSTFFLPELDLIYGIFTTNVNSIAASAVCVFNLSAISQAFNGPFKYQENSRSAWLPYPNPNPNFQCGTMDQGLYVNLTERNLQDAQKFILMHEVVQPVTTVPSFMEDNSRFSHVAVDVVQGRDTLVHIIYLATDYGTIKKVRAPLSQSSGSCLLEEIELFPERKSEPIRSLKILHSQSVLFVGLQEHVVKIPLKRCHFHQTRGACIGAQDPYCGWDAVMKKCTSLEESLSMTQWDQSVPTCPTRNLTVDGSFGPWSPWTPCTHTDGTAVGSCLCRSRSCDSPAPQCGGWQCEGPRMEITNCSRNGGWTPWTSWSPCSTTCGIGFQVRQRSCSNPTPRHGGRVCVGQNREERYCNEHLLCPPHVFWTGWGPWERCTAQCGGGIQARRRTCENGPDCAGCNVEYQPCNTNACPELKKTTPWTPWTPVNISDNGGHYEQRFRYTCKARLPDPNLLEVGRQRIEMRYCSSDGTSGCSTDGLSGDFLRAGRYSAHTVNGAWSAWTSWSQCSRDCSRGIRNRKRVCNNPEPKYGGMPCLGPSLEFQECNILPCPVDGVWSCWSSWSKCSATCGGGHYMRTRSCTNPAPAYGGDICLGLHTEEALCNTQTCPENWSEWSEWSVCDASGTQVRTRQCILLFPVGSQCSGNTTESRPCVFDSNFIPEVSVARSSSVEEKRCGEFNMFHMMAVGLSSSILGCLLTLLVYTYCQRYQQQSHDATVIHPVSPAALNSSITNHINKLDKYDSVEAIKAFNKNNLILEERNKYFNPHLTGKTYSNAYFTDLNNYDEY
For the molecule B4, the binding entry in assay [1] is “binds”.
